Assay results as given in patent US9878999B2, “Proteasome chymotrypsin-like inhibition using PI-1833 analogs” (H. Lee Moffitt Cancer Center and Research Institute, Inc., priority 2011, dated 2018).
The match of structure and compound is tentative.

Biological target: CT-L activity of purified 20S proteasome (Homo sapiens, UniProt P20618+P28074)
Assay: in vitro CT-L activity of purified 20S proteasome
Format: biochemical
Settings: for IC50: read-out: IC50 (μM) Chymotrypsin-like activity, Table 4

CT-L inhibitory activity, in words | IC50 [µM] | Structure (SMILES)
loss of CT-L proteasome activity |  | CCN(Cc1nc(-c2ccc(C)cc2)no1)C(=O)COc1ccc(C)cc1
 | 2.05 | CC(C)N(Cc1nc(-c2ccc(C(F)(F)F)cc2)no1)C(=O)COc1ccc(C(F)(F)F)cc1
 | 0.32 | Cc1ccc(OCC(=O)N(Cc2nc(-c3ccccc3)no2)C(C)C)cc1
 | 0.86 | CC(C)N(Cc1nc(-c2ccc(Cl)cc2)no1)C(=O)COc1ccc(C(F)(F)F)cc1
